At least one compound was matched to its structure with a doubt left.
Test system: B16 cells
Assay: Survival of transfected B16 cells in the presence of drug (Giemsa staining)
Type: cell-based, mouse
Settings: B16 transfected with pUT-pol β relative to control vector pUT526Δ, FIG. 4

Nc1ccn([C@H]2CC[C@@H](CO)O2)c(=O)n1 [ddC, dideoxycytidine]
Toxicity on transfected cells (cell survival): toxicity
